The list shows only some results of the screen, not a fair sample: its compounds were picked by chemical class. Other doses and runs of a compound may be missing. T/C is the treated group as % of the vehicle group. Some doses have a count of surviving animals in place of a T/C: the source files T/C as zero there, which appears to mark a toxic dose or a test without result, not a measured value. Some doses without a T/C left all or most animals alive at the check, yet need not have been tolerated: survival well below the control is almost never listed, so the zero probably covers shortened survival too. Survivors were counted at the toxicity check, usually on the fifth day, unless a day is given; later deaths do not show. Schedule codes are those of the source, taken here to give the interval after Q, in days (D) or hours (H), and the number of doses after X. Where survival is the endpoint, the PubChem record calls one and a half times the control and up active, and a quarter to a half above the control has no call in these data; cut-offs in other NCI protocols can differ. Some entries were tested several times; their values stand side by side, smallest first. Some T/C values are marked as having no survivor count here; that says nothing about deaths at the dose. Some T/C values are followed by the survivors on the day toxicity was checked, most often the fifth; where neither a count nor a note follows, no animal had died by that day.

Data on 11 compounds can be found in PubChem BioAssay AID328 (DTP/NCI, 2004).

This assay concerns BDF1 mice, P388 leukemia ip, median survival T/C. In words: NCI In Vivo Anticancer Drug Screen. Data for tumor model P388 Leukemia (intraperitoneal) in B6D2F1 (BDF1) mice. Conditions: T/C endpoint: median survival time, higher T/C = longer survival. The essentials:
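Antitumour effect was judged in vivo: survival in drug-treated mice, normalised to that of vehicle-dosed controls, gives the reported T/C.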

Where [1] appears, read: dose: 25.0 mg/kg/injection, schedule: Q04DX003 (ip), vehicle: saline with Tween-80.
Setting [2] is: dose: 50.0 mg/kg/injection, schedule: Q04DX003 (ip), vehicle: saline with Tween-80.
The mark [3] stands for this setting: dose: 100.0 mg/kg/injection, schedule: Q04DX003 (ip), vehicle: saline with Tween-80.
Where [4] appears, read: dose: 12.5 mg/kg/injection, schedule: Q04DX003 (ip), vehicle: Klucel (hydroxypropylcellulose) (HPC).
Where [5] appears, read: dose: 25.0 mg/kg/injection, schedule: Q04DX003 (ip), vehicle: Klucel (hydroxypropylcellulose) (HPC).
The mark [6] stands for this setting: dose: 100.0 mg/kg/injection, schedule: Q04DX003 (ip), vehicle: saline.
Setting [7] is: dose: 200.0 mg/kg/injection, schedule: Q04DX003 (ip), vehicle: saline.
Where [8] appears, read: dose: 400.0 mg/kg/injection, schedule: Q04DX003 (ip), vehicle: saline.
The mark [9] stands for this setting: dose: 30.0 mg/kg/injection, schedule: Q01DX009 (ip), vehicle: saline with Tween-80.
[10] abbreviates: dose: 150.0 mg/kg/injection, schedule: Q01DX009 (ip), vehicle: saline with Tween-80.

For `NC(CC(=O)O)c1cccc(N(CCCl)CCCl)c1` (stereo unspecified), the T/C is 250 % of control under setting [1], 250 % of control under setting [2] and 112 % of control under setting [3].

Regarding `N#C/C(=C\c1ccccc1Cc1ccccn1)c1ccccc1.O=[N+]([O-])c1cc([N+](=O)[O-])c(O)c([N+](=O)[O-])c1`, the T/C (dose: 100.0 mg/kg/injection, schedule: Q01DX009 (ip), vehicle: Klucel (hydroxypropylcellulose) (HPC)) was 95 % of control [survivor count not shown] and the T/C (dose: 200.0 mg/kg/injection, schedule: Q01DX009 (ip), vehicle: Klucel (hydroxypropylcellulose) (HPC)) is 95 % of control [survivor count not shown].

Regarding `O=[N+]([O-])c1cc([N+](=O)[O-])c(NNc2ccccc2)c([N+](=O)[O-])c1`, the T/C reads like this: under setting [4], 109 [survivor count not shown] and 118 % of control [survivor count not shown]; (dose: 12.5 mg/kg/injection, schedule: Q04DX003 (ip), vehicle: saline with Tween-80) 113 % of control [survivor count not shown]; under setting [5], 118 % of control [survivor count not shown]; under setting [1], 121 % of control [survivor count not shown]; (dose: 50.0 mg/kg/injection, schedule: Q04DX003 (ip), vehicle: Klucel (hydroxypropylcellulose) (HPC)) 127 [survivor count not shown] and 131 % of control [survivor count not shown]; under setting [2], 130 % of control [survivor count not shown].

In the case of `CCN1CCNCc2ccc(C)nc21.O=[N+]([O-])c1cc([N+](=O)[O-])c(O)c([N+](=O)[O-])c1`, the T/C was 98 % of control under setting [6] and 104 % of control under setting [7]. Besides, the survivor count under setting [8] is reported as 0 of 6.

As to `N/C(=N/[N+](=O)[O-])N(CCBr)N=O.NC1=CCCN1[N+](=O)[O-]`, the T/C was 100 % of control (dose: 50.0 mg/kg/injection, schedule: Q01DX009 (ip), vehicle: alcohol); 109 % of control (dose: 100.0 mg/kg/injection, schedule: Q01DX009 (ip), vehicle: alcohol); 110 % of control under setting [6]; 104 % of control [5 of 6 alive] (dose: 200.0 mg/kg/injection, schedule: Q01DX009 (ip), vehicle: alcohol); 105 % of control under setting [7]. For the same compound, under setting [8], the survivor count was 3 of 6.

Turning to `O=C(NN(CCCl)CCCl)c1ccccc1`, the T/C reads like this: (dose: 13.2 mg/kg/injection, schedule: Q01DX009 (ip), vehicle: saline with Tween-80) 95 % of control; (dose: 20.0 mg/kg/injection, schedule: Q01DX009 (ip), vehicle: saline with Tween-80) 100 % of control [5 of 6 alive]; under setting [9], 116 % of control; (dose: 37.5 mg/kg/injection, schedule: Q01DX009 (ip), vehicle: saline with Tween-80) 125 % of control; (dose: 44.0 mg/kg/injection, schedule: Q04DX003 (ip), vehicle: saline with Tween-80) 100 % of control; (dose: 45.0 mg/kg/injection, schedule: Q01DX009 (ip), vehicle: saline with Tween-80) 108 % of control. For the same compound, the T/C reads like this: (dose: 66.0 mg/kg/injection, schedule: Q04DX003 (ip), vehicle: saline with Tween-80) 121 % of control; (dose: 75.0 mg/kg/injection, schedule: Q01DX009 (ip), vehicle: saline with Tween-80) 190 % of control; under setting [3], 121 % of control; (dose: 150.0 mg/kg/injection, schedule: Q04DX003 (ip), vehicle: saline with Tween-80) 200 % of control. Further, the survivor count under setting [10] was 0 of 6.

With `CCN(CC)CCOC(=O)C(O)(c1ccccc1)c1cc(C)cc(C)c1C` (stereo unspecified), the T/C was 104 % of control (dose: 6.25 mg/kg/injection, schedule: Q04DX003 (ip), vehicle: Klucel (hydroxypropylcellulose) (HPC)); 95 % of control under setting [4]; 87 % of control under setting [5].

As to `COC1OC(CNCCCl)C2OC(C)(C)OC12` (stereo unspecified), the T/C is 133 % of control (dose: 40.0 mg/kg/injection, schedule: Q04DX003 (ip), vehicle: saline); 152 % of control (dose: 90.0 mg/kg/injection, schedule: Q04DX003 (ip), vehicle: saline); 158 % of control (dose: 100.0 mg/kg/injection, schedule: Q01DX009 (ip), vehicle: saline); 130 % of control under setting [6]; 160 % of control (dose: 133.0 mg/kg/injection, schedule: Q04DX003 (ip), vehicle: saline); 162 % of control (dose: 200.0 mg/kg/injection, schedule: Q01DX009 (ip), vehicle: saline). For the same compound, the T/C is 150 and 175 % of control under setting [7]; 108 % of control (dose: 266.0 mg/kg/injection, schedule: Q01DX009 (ip), vehicle: saline); 180 % of control (dose: 300.0 mg/kg/injection, schedule: Q04DX003 (ip), vehicle: saline); 129 and 204 % of control (dose: 400.0 mg/kg/injection, schedule: Q01DX009 (ip), vehicle: saline); 173 % of control under setting [8]. Further, the survivor count reads like this: (dose: 60.0 mg/kg/injection, schedule: Q04DX003 (ip), vehicle: saline) 2 of 3; (dose: 177.0 mg/kg/injection, schedule: Q01DX009 (ip), vehicle: saline) 6 of 6; (dose: 600.0 mg/kg/injection, schedule: Q01DX009 (ip), vehicle: saline) 3 of 6.

On to `ClCC1CS1` (stereo unspecified), for which the T/C reads like this: (dose: 37.5 mg/kg/injection, schedule: Q04DX003 (ip), vehicle: saline sonified) 88 % of control; (dose: 44.0 mg/kg/injection, schedule: Q01DX009 (ip), vehicle: saline with Tween-80) 118 % of control; (dose: 66.0 mg/kg/injection, schedule: Q01DX009 (ip), vehicle: saline with Tween-80) 186 % of control; (dose: 75.0 mg/kg/injection, schedule: Q04DX003 (ip), vehicle: saline sonified) 88 % of control; (dose: 88.0 mg/kg/injection, schedule: Q04DX003 (ip), vehicle: saline sonified) 109 % of control; (dose: 100.0 mg/kg/injection, schedule: Q01DX009 (ip), vehicle: saline with Tween-80) 209 % of control. The T/C is, setting by setting: (dose: 100.0 mg/kg/injection, schedule: Q04DX003 (ip), vehicle: saline sonified) 118 % of control; (dose: 132.0 mg/kg/injection, schedule: Q04DX003 (ip), vehicle: saline sonified) 131 % of control; under setting [10], 245 % of control; (dose: 150.0 mg/kg/injection, schedule: Q04DX003 (ip), vehicle: saline sonified) 100 % of control; (dose: 200.0 mg/kg/injection, schedule: Q04DX003 (ip), vehicle: saline sonified) 104 and 154 % of control; (dose: 300.0 mg/kg/injection, schedule: Q04DX003 (ip), vehicle: saline sonified) 116 and 163 % of control. In addition, the T/C (dose: 400.0 mg/kg/injection, schedule: Q04DX003 (ip), vehicle: saline sonified) is 181 % of control.

On to `[N-]=[N+]=Nc1cc2c(cc1[N+](=O)[O-])no[n+]2[O-]`, for which the T/C runs as follows: (dose: 15.0 mg/kg/injection, schedule: Q01DX009 (ip), vehicle: saline with Tween-80) 123 % of control [survivor count not shown]; under setting [9], 123 % of control [survivor count not shown].

`COP(C)(=O)N1CCCC1` (stereo unspecified): the T/C (dose: 50.0 mg/kg/injection, schedule: Q01DX005 (ip), vehicle: saline with Tween-80) is 100 % of control; the T/C (dose: 100.0 mg/kg/injection, schedule: Q01DX005 (ip), vehicle: saline with Tween-80) was 100 % of control; the T/C (dose: 200.0 mg/kg/injection, schedule: Q01DX005 (ip), vehicle: saline with Tween-80) is 115 % of control.
